Among the data in patent publication US20100113339A1 are binding values, retold here.

This experiment has as its target mouse serum albumin (mouse), P07724. Briefly: SPR Biacore 3000, albumin on CM5 chip, one nanobody concentration; ranked by koff, position 7 of 7, class D. As to conditions: remark: other sources report otherwise.

Results are given in words; binding and its absence hold for the method and conditions named. Some results given as binding are weak or reduced against the parent protein; the word gives no strength.

B1: PMP6G7 (VHH)
VHH: QVQLVESGGGLVQPGGSLRLSCAASGFTFSNYWMYWVRVAPGKGLERISRDISTGGGYSYYADSVKGRFTISRDNAKNTLYLQMNSLKPEDTALYYCAKDREAQVDTLDFDYRGQGTQVTVSS
For the molecule B1, the binding result is listed as “binds”.
